Results from publication PMC5496861, “Yeast Cip1 is activated by environmental stress to inhibit Cdk1–G1 cyclins via Mcm1 and Msn2/4”.
Numbering of substitutions follows the chain as printed. In names and notes the source's numbering stands. These are yes or no findings as the source states them, for the method shown. Binding seen in cells or lysates may run through a third protein. Some results given as binding are weak or reduced against the parent protein; the word gives no strength. Sequences can lack the tags named with a protein.

B1: Cip1 (Ypl014w), full length, C-terminal Myc13 tag (protein, UniProt Q02606 1-381)
chain: MLLERLHKRLHAGSSRRSQENKDKNCKPEDALPIQPEAQHQTQDPQPLLNCDYDDMIAFDRNLSTPVFTPVMTPINNSSSNQAKSSDASYFPPYLNANRTRQNSASSLASSVSDFAQNFKQHTFYNNNAQFTSFTPQFVGLLLEVYQNTCSDPTITPFDTTNPPSGILNRVAKAAIQQSELQQLDIGCDRNSWLLTLVRQRLLQEVRKDGYLSRNTSLTSLPPPPPPQFSEMLRVPSPFVNADITDPIPLSNTNSNPNVSSTTSLTNTLNWYSLQRSNVSMKNRNGSSQYISELQPQPILARTNSNNSVSNSNAFSLLTPTPTTDSAFNFNIALLSRQRSNIISSPLASTRLPTANVSTEESSILPNESLKLKRDLLRLKR
B2: Cln3-14A (D166R170A) (protein, UniProt P13365 1-580)
chain: MAILKDTIIRYANARYATASGTSTATAASVSAASCPNLPLLLQKRRAIASAKSKNPNLVKRELQAHHSAISEYNNDQLDHYFRLSHTERPLYNLTNFNSQPQVNPKMRFLIFDFIMYCHTRLNLSTSTLFLTFTILDKYSSRFIIKSYNYQLLSLTALWISSKFWASKNAMATLKVLQNLCCNQYSIKQFTTMEMHLFKSLDWSICQSATFDSYIDIFLFQSTSPLSPGVVLSAPLEAFIQQKLALLNNAAGTAINKSSSSQGPSLNINEIKLGAIMLCELASFNLELSFKYDRSLIALGAINLIKLSLNYYNSNLWENINLALEENCQDLDIKLSEISNTLLDIAMDQNSFPSSFKSKYLNSNKTSLAKSLLDALQNYCIQLKLEEFYRSQELETMYNTIFAQSFDSDSLTCVYSNATTPKSATVSSAATDYFSDHTHLRRLTKDSISPPFAFTPTSSSSSPSPFNSPYKTSSSMTTPDSASHHSHSGSFSSTQNSFKRSLSIPQNSSIFWPSPLTPTTPSLMSNRKLLQNLSVRSKRLFPVRPMATAHPCSAPTQLKKRSTSSVDCDFNDSSNLKKTR
B3: Cln3-24A (K357K359A) (protein, UniProt P13365 1-580)
chain: B2 chain with A166D, A170R, K357A, K359A
B4: Cip1-3TA (T65A, T69A, T73A) (protein, UniProt Q02606 1-381)
chain: B1 chain with T65A, T69A, T73A
B5: Cln3, C-terminal HA3 tag (protein, UniProt P13365 1-580)
chain: B2 chain with A166D, A170R
B6: Cln3-27A (E386E387AR390A) (protein, UniProt P13365 1-580)
chain: B2 chain with A166D, A170R, E386A, E387A, R390A
B7: Cln3-13A (K163D166A) (protein, UniProt P13365 1-580)
chain: B2 chain with K163A, A170R

Columns and labels:
[1] = target: T1, Cln1, C-terminal HA3 tag (S. cerevisiae) (UniProt P20437); assay: co-IP; Cip1 and cyclin overexpressed (GAL1 promoter) in two different BJ2168 cells; lysates (100 mM NaCl, 0.1% Triton X-100, 50 mM Tris-HCl pH 7.5) mixed and incubated with antibody-coupled Sepharose beads for 1 h; anti-HA precipitates the cyclin (Fig. 7a; the antibody of Fig. 7b is not told); cells untreated or with 0.5 M KCl for 10 min at 30 °C; western blot
T1 sequence: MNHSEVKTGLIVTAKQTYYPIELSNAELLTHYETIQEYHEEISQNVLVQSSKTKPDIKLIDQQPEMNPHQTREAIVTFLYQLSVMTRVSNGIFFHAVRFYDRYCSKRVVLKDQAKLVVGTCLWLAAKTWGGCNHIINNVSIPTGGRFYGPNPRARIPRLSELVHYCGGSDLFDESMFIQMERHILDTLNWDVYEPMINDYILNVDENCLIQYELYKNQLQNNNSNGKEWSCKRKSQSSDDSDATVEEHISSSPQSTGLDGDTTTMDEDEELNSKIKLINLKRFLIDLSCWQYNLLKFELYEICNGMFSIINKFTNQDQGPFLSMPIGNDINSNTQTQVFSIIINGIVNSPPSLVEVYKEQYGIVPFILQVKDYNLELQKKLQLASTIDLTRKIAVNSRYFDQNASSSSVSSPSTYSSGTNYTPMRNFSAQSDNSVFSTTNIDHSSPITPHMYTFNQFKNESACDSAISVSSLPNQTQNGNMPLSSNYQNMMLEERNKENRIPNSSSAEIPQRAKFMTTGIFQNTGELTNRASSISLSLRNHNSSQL

[2] = target: T2, Cln2, C-terminal HA3 tag (S. cerevisiae) (UniProt P20438); assay: as above
T2 sequence: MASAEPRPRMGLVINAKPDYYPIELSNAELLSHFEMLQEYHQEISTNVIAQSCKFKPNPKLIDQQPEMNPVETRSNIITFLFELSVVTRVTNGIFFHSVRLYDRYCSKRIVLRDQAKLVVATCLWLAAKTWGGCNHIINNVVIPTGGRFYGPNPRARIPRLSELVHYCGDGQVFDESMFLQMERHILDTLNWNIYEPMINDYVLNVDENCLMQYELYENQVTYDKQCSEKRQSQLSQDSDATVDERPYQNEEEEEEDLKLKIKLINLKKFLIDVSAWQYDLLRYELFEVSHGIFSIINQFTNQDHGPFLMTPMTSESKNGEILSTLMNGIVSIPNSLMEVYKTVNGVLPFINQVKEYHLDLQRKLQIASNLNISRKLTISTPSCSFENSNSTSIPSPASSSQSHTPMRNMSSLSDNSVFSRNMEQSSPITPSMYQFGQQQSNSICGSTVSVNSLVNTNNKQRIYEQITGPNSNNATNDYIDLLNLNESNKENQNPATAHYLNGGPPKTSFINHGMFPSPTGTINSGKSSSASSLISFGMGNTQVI

[3] = target: T3, Cln3, C-terminal HA3 tag (S. cerevisiae) (UniProt P13365); assay: as above
T3 sequence: B2 chain with A166D, A170R

[4] = target: T4, Cip1 (Ypl014w), full length, C-terminal Myc13 tag (S. cerevisiae) (UniProt Q02606); assay: co-IP; Cip1 and Cln3 (wild type or mutant) overexpressed in two different BJ2168 cells; lysates mixed and incubated with antibody-coupled Sepharose beads for 1 h; anti-Myc precipitates GAL1 promoter-driven Cip1 (Fig. 7g); western blot
T4 sequence: B1 chain

Binder | binding [1] | binding [2] | binding [3] | binding [4]
B1 | binds | binds | binds | 
B2 |  |  |  | binds
B3 |  |  |  | binds
B4 | binds | binds | binds | 
B5 |  |  |  | binds
B6 |  |  |  | binds
B7 |  |  |  | binds
